The text below walks through data of patent US20230287113A1.

By UniProt entry, the sequences of proteins in these tests, tags left out. Residues count along the entry.
UniProt Q8TDQ0, residues 22-202: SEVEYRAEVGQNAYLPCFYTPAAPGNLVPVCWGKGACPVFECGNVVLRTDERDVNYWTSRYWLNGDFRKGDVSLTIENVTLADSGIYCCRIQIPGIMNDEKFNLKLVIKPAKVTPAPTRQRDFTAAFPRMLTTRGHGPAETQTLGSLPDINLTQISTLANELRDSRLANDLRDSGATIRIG

These are yes or no findings as the source states them, for the method shown. Some binding calls cover weakened binding; strength is not graded here.

The assay has as its target human TIM-3 (T-cell immunoglobulin mucin receptor 3) (human) (UniProt Q8TDQ0). Put plainly: SPR or Octet, human TIM-3 analyte. A general note: BLI is a label-free optical method that tracks binding on a fibre tip over time.

B1: anti-TIM-3 IgG1 antibody 66-6 (antibody, V domains shown)
VH: EVQLVESGGGLVQPGGSLRLSCAASGFTFSKYAMHWVRQAPGKGLEWVSAISGSGGSTYYADSVKGRFTISRDNSKNTLYLQMNSLRAEDTAVYYCARDLDYRFSGFDVWGQGTLVTVSS
VL: DIQMTQSPSSLSASVGDRVTITCQASQDISNYLNWYQQKPGKAPKLLIYDASNLETGVPSRFSGSGSGTDFTFTISSLQPEDIATYYCQQFAAIPLTFGQGTKVEIKR
For the molecule B1, the binding entry is listed as “binds”.
